Measured values published in the supplement of paper PMC4371806.
The full ranking holds about 1,600 compounds; the median of “plate-normalized OD600 growth (mean of duplicates)” is about 0.31, and the lowest 2% start at about 0.23. Some of the results follow.

System: Escherichia coli BW25113
Test: plate-normalized OD600 growth (mean of duplicates) (OD600 (normalized)); higher = more growth (less inhibition)
Details: 10 µM
Method: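 E. coli BW25113 in LB (100 µl, 96-well, no shaking) was exposed to 10 µM of each compound (here the ChemBridge subset of a ~30,000-member library) and grown at 37°C for 24 h or 15°C for 48 h, in duplicate. Growth was read as OD600 and the duplicate ODs were normalized across screening plates to correct plate-to-plate variation.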

Structure (SMILES)	plate-normalized OD600 growth (temperature: 15°C, 48 h)	plate-normalized OD600 growth (temperature: 37°C, 24 h)
Cc1ccc(NC(=O)COc2ccc(C)cc2)cc1	0.244	0.597
CN(C)CC(C)(C)CNC1CC2CCC1C2 (stereo not given)	0.265	0.649
O=C(NC1C2CC3CC(C2)CC1C3)c1cccc([N+](=O)[O-])c1 (stereo not given)	0.23	0.655
CC1=CCC2C(=O)N(C3CCCCC3)C(=O)C2C1 (stereo not given)	0.262	0.621
NC(=O)C1CCCN(CC2CC=CCC2)C1 (stereo not given)	0.249	0.576
Nc1nc(-c2ccc(NC(=O)c3ccc(Cl)cc3)cc2)cs1	0.247	0.6
COc1ccc(NS(=O)(=O)c2ccc(NS(=O)(=O)c3ccccc3[N+](=O)[O-])cc2)nn1	0.254	0.616
O=C(Nn1cnnc1)c1ccccc1I	0.248	0.627
Cc1cccc(N2C(=O)CC(N3CCOCC3)C2=O)c1 (stereo not given)	0.247	0.591
CCC(=O)C1=C(N2CCOCC2)CC(C)(C)CC1=O	0.272	0.643
c1ccc(-c2nnc3n2C2(CCCC2)Cc2ccccc2-3)cc1	0.246	0.629
CC(NC(=O)CCC(=O)O)c1ccccc1 (stereo not given)	0.304	0.641
Cc1cc(C)c(C2C(C#N)=C(N)Oc3n[nH]c(C)c32)c(C)c1 (stereo not given)	0.218	0.621
O=C(NCc1ccccn1)C(=O)Nc1cccc(Cl)c1	0.26	0.651
O=C(O)CCN(CC(=O)O)C(=O)c1ccccc1	0.238	0.63
O=C(/C=C/Nc1ccccn1)c1ccc(Cl)s1	0.249	0.619
CCc1ccc2oc(-c3ccc(N)cc3)nc2c1	0.236	0.605
CCN(CC)C(=O)CSc1nc(O)cc(=O)n1C	0.235	0.622
N#CC1=C(N)OC2=C(C(=O)CC(c3ccccc3)C2)C1C1CCCCC1 (stereo not given)	0.236	0.614
C/C(=C\c1ccccc1)CN(C)C1CCN(C)CC1	0.249	0.637
CSc1nnc2n(C)c(=O)c3c4c(sc3n12)COC(C)(C)C4	0.246	0.62
OC1CCC(C2CC3CCC2C3)CC1O (stereo not given)	0.25	0.62
NC(=O)COc1ccc([N+](=O)[O-])cc1	0.25	0.62
Cc1cccc(N2CCN(Cc3ccsc3)CC2)c1C	0.258	0.626

Structure (SMILES)	plate-normalized OD600 growth (temperature: 15°C, 48 h)	plate-normalized OD600 growth (temperature: 37°C, 24 h)
CC(NC(=O)c1ccccc1)C(O)c1ccccc1 (stereo not given)	0.264	0.63
Cc1cccc(C)c1OCCCN1CCOCC1	0.269	0.619
COc1ccc(NC(=O)c2cccnc2)cc1	0.24	0.645
O=C1CC(N2CCN(C(c3ccccc3)c3ccccc3)CC2)C(=O)N1 (stereo not given)	0.253	0.609
NC(=O)C1(S(=O)(=O)c2ccccc2)CC1	0.242	0.628
N#CC(=Cc1cc2c(cc1Br)OCO2)c1nc2ccccc2[nH]1	0.273	0.61
CC1(C)CC(=O)C=C(NN2CCOCC2)C1	0.241	0.609
COc1cccc(OC)c1C(=O)N1CCN(Cc2cccc([N+](=O)[O-])c2)CC1	0.266	0.645
Cc1cc(NO)nc(-c2ccc(Br)cc2)n1	0.221	0.622
O=c1cc(-c2ccccc2)c2cc(Br)ccc2[nH]1	0.265	0.659
Cc1ccc(-c2nc3ccccc3[nH]2)cc1N	0.222	0.616
COc1ccc(NC(=O)C(C)(C)C)cc1	0.265	0.636
Cc1nn(-c2ccccc2)c2c1C(c1cccc([N+](=O)[O-])c1)C(C#N)=C(N)O2 (stereo not given)	0.239	0.624
O=C1CC(N2CCN(Cc3ccc4c(c3)OCO4)CC2)C(=O)N1c1ccccc1 (stereo not given)	0.258	0.625
O=C(Nc1cc(Cl)ccc1Cl)c1cnccn1	0.234	0.624
O=C(O)CSc1nc2ccccc2[nH]1	0.259	0.621
N#CCCn1nc(-c2ccccc2)cc1-c1ccccc1	0.245	0.59
CC(C)C(=O)Nc1c2c(nc3ccccc13)N(C)CC2	0.259	0.649
O=c1nc(-c2ccc(Cl)cc2)oc2ccccc12	0.246	0.609
CC1CC(C)CN(S(=O)(=O)c2ccc(Cl)cc2)C1 (stereo not given)	0.247	0.651
Cn1c(CNC2CCCCC2)nc2ccccc21	0.242	0.6
CCCOc1ccc(-c2cn(CC(=O)NN)cn2)cc1	0.273	0.619
COc1ccc2[nH]cc(CCNC(=O)c3ccc(Cl)cc3)c2c1	0.252	0.632
O=C1CCC(=O)N1c1ccc(Sc2ccc([N+](=O)[O-])cc2)cc1	0.243	0.611

Structure (SMILES)	plate-normalized OD600 growth (temperature: 15°C, 48 h)	plate-normalized OD600 growth (temperature: 37°C, 24 h)
COc1ccccc1NS(=O)(=O)c1ccc(Cl)cc1	0.256	0.651
O=[N+]([O-])c1ccccc1CNC1C2CC3CC(C2)CC1C3 (stereo not given)	0.238	0.612
N#CSc1cnc(NC2CCCCC2)s1	0.254	0.611
O=C(O)C1CC1(c1ccccc1)c1ccccc1 (stereo not given)	0.251	0.622
CS(=O)(=O)N1CCN(c2ccc([N+](=O)[O-])c3cccnc23)CC1	0.267	0.645
N#C/C(=C\c1cc2c(cc1Br)OCO2)c1ccc([N+](=O)[O-])cc1	0.263	0.629
COc1ccc(Br)cc1CN1CCSCC1	0.247	0.615
O=c1cc(Nc2cccc(Cl)c2)[nH]c(=O)[nH]1	0.262	0.634
CCOc1ccc(C2(C)NC(=O)N(CCN(C)C)C2=O)cc1 (stereo not given)	0.23	0.613
CC1(C)C(=O)N(O)C(C)(C)C(=O)N1O	0.269	0.632
C(#CC12CC3CC(CC(C3)C1)C2)CN1CCOCC1	0.245	0.615
C=CCSc1nc(O)c(CC)c(=O)n1-c1ccc(C)cc1	0.229	0.599
COc1ccc(-c2cc(=O)c3ccccc3o2)cc1	0.244	0.596
COc1cc(CN2CCN(c3ccc([N+](=O)[O-])cc3)CC2)ccc1O	0.253	0.66
CCOc1ccc(Cl)cc1/C=C(/C#N)c1nc2ccc(C)cc2[nH]1	0.27	0.63
O=C(O)CCC(=O)Nc1ccccc1C#Cc1ccc(Br)cc1	0.257	0.597
Fc1ccc(CN2CCN(c3ncccn3)CC2)cc1	0.253	0.629
Cn1c(C(O)(c2ccccc2)c2ccccc2)nc2ccccc21	0.253	0.62
OC(COc1ccccc1)Cn1ccnc1 (stereo not given)	0.244	0.621
CN1CCN(C2C3CC4CC(C3)CC2C4)CC1 (stereo not given)	0.257	0.605
N#CC1=C(N)SC(N)=C(C#N)C1c1ccc(-c2ccccc2)cc1	0.242	0.607
OC1CCCN(Cc2ccc(Cl)cc2Cl)C1 (stereo not given)	0.278	0.64

Reformatted with bars between the fields: three of the compounds above.
Structure (SMILES) | plate-normalized OD600 growth (temperature: 15°C, 48 h) | plate-normalized OD600 growth (temperature: 37°C, 24 h)
CCOc1ccc(Cl)cc1/C=C(/C#N)c1nc2ccc(C)cc2[nH]1 | 0.27 | 0.63
O=C(O)CCC(=O)Nc1ccccc1C#Cc1ccc(Br)cc1 | 0.257 | 0.597
Fc1ccc(CN2CCN(c3ncccn3)CC2)cc1 | 0.253 | 0.629
